{
  "source": "paper PMC3814058",
  "key": {"[1]": {"target": "GFP–STIM2K–C725A (human) (UniProt Q9P246)", "test": "non-reducing SDS/PAGE; overnight dialysis at 4°C against non-reducing (DTT-free) HK buffer, non-reducing sample buffer, 65°C 5 min, Coomassie stain; disulphide-linked dimer; both purified"}, "[2]": {"target": "GFP–STIM2K (GFP fused to residues 720–746 of human STIM2, K-rich domain), reduced monomer (human) (UniProt Q9P246)", "test": "reducing SDS/PAGE; as a2 but separated under reducing conditions (DTT); both purified"}},
  "note": "Results are given in words; binding and its absence hold for the method and conditions named.",
  "data": [
    {"substance": "GFP–STIM2K–C725A (from UniProt Q9P246-1 720-746) (domain or fragment)", "values": [
      {"measurement": "binding", "setting": "[1]", "value": "no binding"}
    ]},
    {"substance": "GFP–STIM2K (GFP fused to residues 720–746 of human STIM2, K-rich domain), reduced monomer (from UniProt Q9P246-1 720-746) (domain or fragment)", "values": [
      {"measurement": "binding", "setting": "[2]", "value": "no binding (condition: under reducing conditions (DTT))"}
    ]}
  ]
}
